Data: PubChem BioAssay AID212 (DTP/NCI, 2004)
The list is a part of this screen's results and no random one: it is rich in T/C values a quarter to a half above the control, in often repeated tests (any T/C) and in doses without a T/C. Further doses and runs are listed elsewhere. T/C: endpoint of the treated group in % of that of the vehicle group. Schedules are NCI's codes, read here as Q, the interval in days (D) or hours (H), X, the number of doses. Some T/C values are followed by the survivors on the day toxicity was checked, most often the fifth; where none is given, no animal had died by that day. Some entries give survivors of the animals treated and no T/C: the source files T/C as zero there, which appears to mark a toxic dose or a test without result, not a measured value. Survivors were counted at the toxicity check, usually on the fifth day, unless a day is given; later deaths do not show. Some entries hold several experiments; the results are listed from low to high.

System: BDF1 mice, colon carcinoma 38 sc, T/C %
Test: NCI In Vivo Anticancer Drug Screen. Data for tumor model Colon Carcinoma 38 (subcutaneous) in B6D2F1 (BDF1) mice
Conditions: T/C endpoint: median tumor weight (est.), higher T/C = larger tumour; for T/C: evaluated on day 20
How it was run: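 Transplantable tumor in mice; compound-treated vs vehicle-dosed controls. Measured survival or tumor size; value = T ÷ C.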

CCCCC(=O)OCC(=O)[C@]1(O)Cc2c(O)c3c(c(O)c2[C@@H](OC2CC(NC(=O)C(F)(F)F)C(O)C(C)O2)C1)C(=O)c1c(OC)cccc1C3=O (stereo not given in full)
T/C (dose: 50.0 mg/kg/injection, schedule: Q07DX002 (ip), vehicle: water): 140 % of control

CC(C)[C@]12O[C@H]1[C@@H]1O[C@]13[C@]1(O[C@H]1C[C@H]1C4=C(C(=O)OC4)[C@@H](O)C[C@@]13C)[C@@H]2O
T/C (dose: 50.0 micrograms/kg/injection, schedule: Q07DX002 (ip), vehicle: saline + alcohol): 129 % of control [8 of 10 alive on day 20] | survivor count (dose: 800.0 micrograms/kg/injection, schedule: Q07DX002 (ip), vehicle: saline + alcohol): 4 of 10 on day 20

CCC[CH2][Hg][Cl]
T/C (dose: 1.25 mg/kg/injection, schedule: Q07DX002 (ip), vehicle: Klucel (hydroxypropylcellulose) (HPC)): 134 % of control | T/C (dose: 10.0 mg/kg/injection, schedule: Q07DX002 (ip), vehicle: Klucel (hydroxypropylcellulose) (HPC)): 125 % of control [9 of 10 alive on day 20]

C1CCC2OCCOCCOC3CCCCC3OCCOCCOC2C1 (stereo not given)
T/C (dose: 6.25 mg/kg/injection, schedule: Q07DX002 (ip), vehicle: Klucel (hydroxypropylcellulose) (HPC)): 126 % of control | T/C (dose: 12.5 mg/kg/injection, schedule: Q07DX002 (ip), vehicle: Klucel (hydroxypropylcellulose) (HPC)): 125 % of control | T/C (dose: 50.0 mg/kg/injection, schedule: Q07DX002 (ip), vehicle: Klucel (hydroxypropylcellulose) (HPC)): 149 % of control

Cc1ccc2c(c1)N=C(Nc1ccccc1)N=S2(C)=O (stereo not given)
T/C (dose: 100.0 mg/kg/injection, schedule: Q07DX002 (ip), vehicle: saline with Tween-80): 127 % of control [7 of 10 alive on day 20] | survivor count (dose: 400.0 mg/kg/injection, schedule: Q07DX002 (ip), vehicle: saline with Tween-80): 6 of 10 on day 20

O=C(O)Cc1cccc2c(=O)cc(-c3ccccc3)oc12
survivor count (dose: 112.0 mg/kg/injection, schedule: Q03HX004 (ip), vehicle: clinical formulation): 4 of 10 on day 20 | survivor count (dose: 150.0 mg/kg/injection, schedule: Q03HX004 (ip), vehicle: clinical formulation): 0 of 10 on day 20 | survivor count (dose: 200.0 mg/kg/injection, schedule: Q03HX004 (ip), vehicle: clinical formulation): 0 of 10 on day 20 | survivor count (dose: 200.0 mg/kg/injection, schedule: Q06HX002 (ip), vehicle: clinical formulation): 1 of 10 on day 20 | survivor count (dose: 200.0 mg/kg/injection, schedule: Q07DX002 (ip), vehicle: Klucel (hydroxypropylcellulose) (HPC)): 0 of 10 on day 20 | survivor count (dose: 267.0 mg/kg/injection, schedule: Q01DX001 (ip), vehicle: clinical formulation): 1 of 10 on day 20 | survivor count (dose: 267.0 mg/kg/injection, schedule: Q06HX002 (ip), vehicle: clinical formulation): 1 of 10 on day 20 | survivor count (dose: 267.0 mg/kg/injection, schedule: Q07DX002 (ip), vehicle: clinical formulation): 4 of 10 on day 20 | survivor count (dose: 356.0 mg/kg/injection, schedule: Q01DX001 (ip), vehicle: clinical formulation): 0 of 9 on day 20 | survivor count (dose: 356.0 mg/kg/injection, schedule: Q07DX002 (ip), vehicle: clinical formulation): 0 of 10 on day 20 | survivor count (dose: 356.0 mg/kg/injection, schedule: Q07DX002 (iv), vehicle: sodium bicarbonate): 2 of 10 on day 20 | survivor count (dose: 400.0 mg/kg/injection, schedule: Q07DX002 (ip), vehicle: sodium bicarbonate): 1 of 10 on day 20

COc1cc2c(c(OC)c1OC)-c1ccc(OC)c(=O)cc1[C@@H](NC(C)=O)CC2
T/C (dose: 0.39 mg/kg/injection, schedule: Q07DX002 (ip), vehicle: saline): 131 % of control | T/C (dose: 0.5 mg/kg/injection, schedule: Q07DX002 (ip), vehicle: saline): 146 % of control | T/C (dose: 0.78 mg/kg/injection, schedule: Q07DX002 (ip), vehicle: saline): 142 % of control | T/C (dose: 2.0 mg/kg/injection, schedule: Q07DX002 (ip), vehicle: saline): 130 % of control | survivor count (dose: 3.12 mg/kg/injection, schedule: Q07DX002 (ip), vehicle: saline): 2 of 10 on day 20 and 6 of 10 on day 20 | survivor count (dose: 6.25 mg/kg/injection, schedule: Q07DX002 (ip), vehicle: saline): 0 of 10 on day 20 | survivor count (dose: 12.0 mg/kg/injection, schedule: Q07DX002 (ip), vehicle: saline): 0 of 10 on day 20 | survivor count (dose: 12.5 mg/kg/injection, schedule: Q07DX002 (ip), vehicle: saline): 0 of 10 on day 20 and 1 of 10 on day 20 | survivor count (dose: 25.0 mg/kg/injection, schedule: Q07DX002 (ip), vehicle: saline): 0 of 10 on day 20 | survivor count (dose: 50.0 mg/kg/injection, schedule: Q07DX002 (ip), vehicle: saline): 0 of 10 on day 20 | survivor count (dose: 100.0 mg/kg/injection, schedule: Q07DX002 (ip), vehicle: saline): 0 of 10 on day 20 | survivor count (dose: 200.0 mg/kg/injection, schedule: Q07DX002 (ip), vehicle: saline): 0 of 10 on day 20 | survivor count (dose: 400.0 mg/kg/injection, schedule: Q07DX002 (ip), vehicle: saline): 0 of 10 on day 20
